Assay results from PubChem BioAssay AID192 (DTP/NCI, 2004).
The list shows only some results of the screen, not a fair sample: it is rich in T/C values a quarter to a half above the control, in often repeated tests (any T/C) and in doses without a T/C. Further doses and runs are listed elsewhere. T/C gives the treated animals as a percentage of the vehicle group. Some entries give survivors of the animals treated and no T/C: the source files T/C as zero there, which appears to mark a toxic dose or a test without result, not a measured value. Some doses without a T/C left all or most animals alive at the check, yet need not have been tolerated: the source hardly ever lists a survival T/C far under the control, and the zero likely stands for such cases as well. Survivors were counted at the toxicity check, usually on the fifth day, unless a day is given; later deaths do not show. Schedules are NCI's codes, read here as Q, the interval in days (D) or hours (H), X, the number of doses. Some entries were tested several times; the results are listed from low to high. Where survival is the endpoint, the PubChem record calls one and a half times the control and up active, and a quarter to a half above the control has no call in these data; cut-offs in other NCI protocols can differ.

Test system: BDF1 mice, B16 melanoma ip, median survival T/C
Assay: NCI In Vivo Anticancer Drug Screen. Data for tumor model B16 Melanoma (intraperitoneal) in B6D2F1 (BDF1) mice
Details: T/C endpoint: median survival time, higher T/C = longer survival
Procedure: The antitumor activity of compounds was measured in mice bearing transplantable tumors. Survival or tumor size were measured and the results are expressed as the measurement made in the treated group (T) divided by the measurement made in the vehicle treated control group (C). The tumor model used in this assay is B16 Melanoma (intraperitoneal) in B6D2F1 (BDF1) mice

[1] = dose: 50.0 mg/kg/injection, schedule: Q01DX009 (ip), vehicle: saline with Tween-80
[2] = dose: 200.0 mg/kg/injection, schedule: Q01DX009 (ip), vehicle: saline with Tween-80
[3] = dose: 400.0 mg/kg/injection, schedule: Q01DX009 (ip), vehicle: saline with Tween-80
[4] = dose: 100.0 mg/kg/injection, schedule: Q01DX009 (ip), vehicle: Klucel (hydroxypropylcellulose) (HPC)
[5] = dose: 200.0 mg/kg/injection, schedule: Q01DX009 (ip), vehicle: Klucel (hydroxypropylcellulose) (HPC)
[6] = dose: 400.0 mg/kg/injection, schedule: Q01DX009 (ip), vehicle: Klucel (hydroxypropylcellulose) (HPC)
[7] = dose: 100.0 mg/kg/injection, schedule: Q01DX009 (ip), vehicle: saline
[8] = dose: 100.0 mg/kg/injection, schedule: Q01DX009 (ip), vehicle: saline with Tween-80
[9] = dose: 4.0 mg/kg/injection, schedule: Q01DX009 (ip), vehicle: water

`Cc1cc2ccc(OC(=O)c3ccc(N=C(N)N)cc3)cc2oc1=O` was tested, and the survivor count [1] was 10 of 10, the survivor count [2] was 10 of 10 and the survivor count [3] was 10 of 10.
For `O=C1OC(C(O)CO)C(O)=C1O` (configuration not stated), the survivor count (dose: 32.0 mg/kg/injection, schedule: Q01DX009 (ip), vehicle: saline) was 0 of 10.
With `COc1ccc(N2CSC(=S)N(c3ccc(OC)cc3)C2)cc1` the T/C (dose: 12.5 mg/kg/injection, schedule: Q01DX009 (ip), vehicle: saline with Tween-80) was 130 % of control, the survivor count [4] was 10 of 10 and the survivor count [5] was 10 of 10. For the same compound, the survivor count [6] was 10 of 10.
`CC(C)OCc1c(N)nc(=S)[nH]c1C(=O)O` was tested, and the survivor count [7] was 6 of 10.
`CCCn1c(=S)[nH]c2ccccc2c1=O` was tested, and the T/C [8] was 125 % of control, the survivor count [5] was 10 of 10 and the survivor count [2] was 6 of 6. For the same compound, the survivor count [6] was 8 of 10 and the survivor count [3] was 5 of 6.
For `Cc1cnc(/C=N\NC(N)=S)c2cccc(N)c12`, the T/C (dose: 12.5 mg/kg/injection, schedule: Q01DX009 (ip), vehicle: saline with Tween-80, evaluated on day 45) was 136 % of control, the T/C (dose: 12.5 mg/kg/injection, schedule: Q01DX009 (ip), vehicle: saline with Tween-80, evaluated on day 60) was 125 % of control and the T/C (dose: 25.0 mg/kg/injection, schedule: Q01DX009 (ip), vehicle: Klucel (hydroxypropylcellulose) (HPC)) was 129 % of control. For the same compound, the T/C (dose: 25.0 mg/kg/injection, schedule: Q01DX009 (ip), vehicle: saline with Tween-80, evaluated on day 45) was 142 % of control, the T/C (dose: 25.0 mg/kg/injection, schedule: Q01DX009 (ip), vehicle: saline with Tween-80, evaluated on day 60) was 135 % of control and the T/C (dose: 50.0 mg/kg/injection, schedule: Q01DX009 (ip), vehicle: Klucel (hydroxypropylcellulose) (HPC)) was 128 % of control. For the same compound, the survivor count [8] was 7 of 10.
With `COc1ccc2c(c1Oc1ccc([N+](=O)[O-])cc1[N+](=O)[O-])C13CCN(C)C(C2)C1CCC1(C3)OCCO1` (configuration not stated) the survivor count [6] was 4 of 10.
With `CCCCNc1ccc(Nc2ccccc2)cc1` the survivor count (dose: 100.0 mg/kg/injection, schedule: Q01DX009 (ip), vehicle: saline + alcohol) was 8 of 10.
In the case of `CS(=O)(=O)c1cc(C(F)(F)F)cc([N+](=O)[O-])c1Cl`, the survivor count [2] is reported as 0 of 6.
For `COC(=O)c1ccc(Cl)nc1`, the survivor count [5] was 9 of 10.
`COc1ccc(NC(=O)Nc2ccc(OC)cc2)cc1` was tested, and the T/C [7] was 126 % of control.
In the case of `CN(C)C1CC1c1ccccc1` (configuration not stated), the survivor count (dose: 200.0 mg/kg/injection, schedule: Q01DX009 (ip), vehicle: saline) is reported as 0 of 10 and the survivor count (dose: 400.0 mg/kg/injection, schedule: Q01DX009 (ip), vehicle: saline) is reported as 0 of 10.
`CCCCCCCCCCCCCCCC(=O)O[C@@]12C[C@@H](C)[C@@]3(O)[C@@H](C=C(CO)C[C@]4(O)C(=O)C(C)=C[C@@H]34)[C@@H]1C2(C)C` was tested, and the survivor count (dose: 0.25 mg/kg/injection, schedule: Q01DX009 (ip), vehicle: other) was 9 of 10, the survivor count (dose: 0.5 mg/kg/injection, schedule: Q01DX009 (ip), vehicle: other) was 8 of 10 and the survivor count (dose: 1.0 mg/kg/injection, schedule: Q01DX009 (ip), vehicle: other) was 2 of 10.
`COC(=O)C1C2CC3c4[nH]c5cc(OC)ccc5c4CCN3CC2CC(OC(=O)c2cc(OC)c(OC)c(OC)c2)C1OC` (configuration not stated) was tested, and the survivor count [4] was 0 of 10, the survivor count [5] was 0 of 10 and the survivor count [6] was 0 of 10.
With `C=COCCCCCC(C)C` the survivor count [5] was 10 of 10 and the survivor count [6] was 9 of 10.
With `Cc1ncc([N+](=O)[O-])n1CCSC(N)=O` the survivor count [1] was 9 of 10 and the survivor count [3] was 5 of 10.
With `CCC1=C[C@H]2CN(CCc3c([nH]c4ccccc34)[C@@](C(=O)OC)(c3cc4c(cc3OC)N(C)[C@H]3[C@@](O)(C(=O)OC)[C@H](OC(C)=O)[C@]5(CC)C=CCN6CC[C@]43[C@@H]65)C2)C1` the T/C (dose: 0.2 mg/kg/injection, schedule: Q01DX009 (ip), vehicle: saline) was 127 % of control, the T/C (dose: 0.25 mg/kg/injection, schedule: Q01DX009 (ip), vehicle: water, evaluated on day 45) was 125 % of control and the T/C (dose: 0.25 mg/kg/injection, schedule: Q01DX009 (ip), vehicle: water, evaluated on day 60) was 126 % of control. The T/C (dose: 0.4 mg/kg/injection, schedule: Q01DX009 (ip), vehicle: saline) was 128 % of control, the T/C (dose: 0.5 mg/kg/injection, schedule: Q01DX009 (ip), vehicle: water, evaluated on day 45) was 140 % of control and the T/C (dose: 0.5 mg/kg/injection, schedule: Q01DX009 (ip), vehicle: water, evaluated on day 60) was 108, 133, 142 % of control. The T/C (dose: 0.5 mg/kg/injection, schedule: Q04DX003 (ip), vehicle: water) was 137 % of control, the T/C (dose: 1.0 mg/kg/injection, schedule: Q01DX009 (ip), vehicle: water, evaluated on day 45) was 154 % of control and the T/C (dose: 1.0 mg/kg/injection, schedule: Q01DX009 (ip), vehicle: water, evaluated on day 60) was 137, 140, 183 % of control. For the same compound, the T/C (dose: 1.0 mg/kg/injection, schedule: Q04DX003 (ip), vehicle: water) was 139 % of control, the T/C (dose: 2.0 mg/kg/injection, schedule: Q01DX009 (ip), vehicle: water, evaluated on day 45) was 171 % of control and the T/C (dose: 2.0 mg/kg/injection, schedule: Q01DX009 (ip), vehicle: water, evaluated on day 60) was 137 and 152 % of control. The survivor count (dose: 2.0 mg/kg/injection, schedule: Q01DX009 (ip), vehicle: water) was 10 of 10, the T/C (dose: 2.0 mg/kg/injection, schedule: Q04DX003 (ip), vehicle: water) was 142 % of control and the survivor count (dose: 3.2 mg/kg/injection, schedule: Q01DX009 (ip), vehicle: saline) was 6 of 6. For the same compound, the T/C [9] was 133 % of control, the survivor count [9] was 9 of 10 and the survivor count (dose: 6.4 mg/kg/injection, schedule: Q01DX009 (ip), vehicle: saline) was 4 of 6. The survivor count (dose: 8.0 mg/kg/injection, schedule: Q01DX009 (ip), vehicle: water) was 2 of 10 and 10 of 10, the T/C (dose: 8.0 mg/kg/injection, schedule: Q04DX003 (ip), vehicle: water) was 143 % of control and the survivor count (dose: 12.8 mg/kg/injection, schedule: Q01DX009 (ip), vehicle: saline) was 0 of 6.
`Cn1c(C(Cl)Cl)nc2ccccc2c1=O` was tested, and the survivor count [8] was 6 of 6.
With `Oc1ccc2ccccc2c1N=Nc1ccc(Cl)cc1` the T/C [1] was 129 % of control, the T/C [8] was 134 % of control and the T/C [2] was 130 % of control.
For `[Cl][Pt][Cl].[NH-]C(CO)C(=O)O` (configuration not stated), the T/C (dose: 6.25 mg/kg/injection, schedule: Q01DX009 (ip), vehicle: water) was 131 % of control, the T/C (dose: 25.0 mg/kg/injection, schedule: Q01DX009 (ip), vehicle: water) was 138 % of control and the survivor count (dose: 50.0 mg/kg/injection, schedule: Q01DX009 (ip), vehicle: water) was 10 of 10. For the same compound, the survivor count (dose: 100.0 mg/kg/injection, schedule: Q01DX009 (ip), vehicle: water) was 0 of 10.
For `c1ccc(N2CCOCC2)cc1`, the survivor count [6] was 0 of 10.
With `O=CC=O` the T/C [2] was 128 % of control and the survivor count [3] was 0 of 10.
For `CCOC(=O)C(=CN(C(C)C)C(C)C)C(=O)OCC`, the survivor count [2] was 9 of 10.
With `COC(=O)c1[nH]cnc1/N=N/N(C)C` the T/C (dose: 7.5 mg/kg/injection, schedule: Q01DX009 (ip), vehicle: saline) was 126 % of control, the survivor count (dose: 30.0 mg/kg/injection, schedule: Q01DX009 (ip), vehicle: saline) was 6 of 6 and the survivor count (dose: 60.0 mg/kg/injection, schedule: Q01DX009 (ip), vehicle: saline) was 6 of 6.
For `N#Cc1ccc(Br)cc1[N+](=O)[O-]`, the survivor count (dose: 1.56 mg/kg/injection, schedule: Q01DX009 (ip), vehicle: Klucel (hydroxypropylcellulose) (HPC)) was 10 of 10, the survivor count (dose: 3.13 mg/kg/injection, schedule: Q01DX009 (ip), vehicle: Klucel (hydroxypropylcellulose) (HPC)) was 10 of 10 and the survivor count (dose: 6.25 mg/kg/injection, schedule: Q01DX009 (ip), vehicle: Klucel (hydroxypropylcellulose) (HPC)) was 10 of 10.
